Test results reported in the supplement of paper PMC5407854, “Inhibitor of ppGalNAc-T3-mediated O-glycosylation blocks cancer cell invasiveness and lowers FGF23 levels” (eLife, 2017).
The other results are listed elsewhere or left out. Most entries show no effect beyond the scatter of the controls.

Columns and labels:
[1] = test system: ppGalNAc-T3 sensor; assay: T3 sensor activation Q score (MG/GFP ratio z-score vs DMSO controls) (SD units); higher = more sensor activation (inhibition of ppGalNAc-T3 glycosylation); conditions: HEK293 sensor cells; 10 µM; 6 h
Procedure: (§1)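 Cells were treated with compound at 10 uM for 6 h, then MG/GFP ratio was read by flow cytometry (10,000 cells per well, duplicate wells). Q = (R - R_neg)/SD_neg relative to DMSO vehicle controls; the signal rises when the glycosyltransferase is inhibited.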

[2] = test system: ppGalNAc-T2 sensor; assay: T2 sensor activation Q score (MG/GFP ratio z-score vs DMSO controls) (SD units); higher = more sensor activation (inhibition of ppGalNAc-T2 glycosylation); conditions: HEK293 sensor cells; 10 µM; 6 h
Procedure: as §1

Structure (SMILES) | T3 sensor activation Q score [1] | T2 sensor activation Q score [2]
CCCC(=O)Nc1cc2oc3ccccc3c2cc1OC | -0.285 | -0.31
COc1ccccc1C(=O)Nc1ccc(C(=O)O)cc1 | -0.98 | -1.23
CN1CCN(Cc2cc([N+](=O)[O-])ccc2O)CC1 | 0.675 | -0.26
O=S(=O)(c1ccccc1)c1ccc(N2CCCCC2)cc1 | 1.25 | -0.105
O=C(NC(Cc1ccc(O)cc1)C(=O)O)c1ccccc1 (stereo not drawn) | -0.005 | -1
CC(=O)Nc1ccc(NC(=O)c2ccc(I)cc2)cc1 | -0.44 | 0.165
COc1ccc(CN2CCCN(C)CC2)cc1C | 0.275 | 0.375
CCN(CC)/C(=C/C(=O)c1cccc([N+](=O)[O-])c1)c1ccccc1 | -0.42 | 1.1
CN1CCc2c(n(-c3ccccc3)c3ccccc23)C1=O | 0.65 | -0.095
CCC1CCCCN1C1CC(=O)N(c2ccc(OC)cc2)C1=O (stereo not drawn) | 0.75 | -0.665
NNc1ncnc2sc3c(c12)CCC3 | 1.1 | -0.91
OC(CN1CCOCC1)CN(c1ccccc1)c1ccccc1 (stereo not drawn) | 1.75 | 2.87
CC(C)(C)OC(=O)N1CCCC1C(=O)O (stereo not drawn) | -0.39 | -0.835
Cc1ccccc1C(=O)N(Cc1ccccc1)C(C)C | -0.155 | 1.23
CC1CCN(S(=O)(=O)c2ccc(F)cc2)CC1 | -0.33 | 0.755
CC(C)C1=NN2C(=N)CC(=O)N=C2S1 | 1.43 | 0.99
O=[N+]([O-])c1cccc(CN2CCN(Cc3ccc4c(c3)OCO4)CC2)c1 | 0.63 | -0.285
CCN1CCN(C2CC(=O)N(c3ccc(F)cc3)C2=O)CC1 (stereo not drawn) | -0.41 | -1.09
Nc1ccc(C2CC(=O)NC(=O)N2)cc1 (stereo not drawn) | 0.275 | -0.22

Gathered by group, the compounds so far with nitrogen in an aromatic ring
Structure (SMILES) | T3 sensor activation Q score [1] | T2 sensor activation Q score [2]
CN1CCc2c(n(-c3ccccc3)c3ccccc23)C1=O | 0.65 | -0.095
NNc1ncnc2sc3c(c12)CCC3 | 1.1 | -0.91
